PubChem BioAssay AID1508597, Cure First – 2020
Shown is an unselected part of the about 2,100 reagents, in one setting of the screen. 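Calls flag viability under 80% in either arm, not effects specific to rucaparib; the reference for percent is not stated.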 The record does not give: the 100% reference.

- Aim: 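Knock-downs altering ovarian cancer cell survival with or without PARP inhibitor rucaparib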 (primary screen)
- Cells: human ovarian carcinoma lines grown from tumours: OCI-P5x (papillary serous) and OCI-C5x (clear cell)
- Knock-down reagent: siRNA pool against human genes, 1.25 pmol siRNA per well
- Duration: 72 h or 96 h, depending on the cell culture
- Treatment: rucaparib 20 µM (about IC30) or vehicle, present until read-out
- Rucaparib or vehicle: Vehicle
- Cell line: OCI-C5x (clear cell)
- Detection: 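Luminescent ATP-based viability assay read 72 or 96 h after transfection, depending on culture, given as normalised percent viability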
- Scale: viability, normalised: higher = more viable cells remaining
- Rule for the call: 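a well counts as a hit if its normalised viability is under 80 percent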
- Calls: active = viability under 80%; inactive = viability 80% or more

ING5 (inhibitor of growth family member 5), technical replicate 1 scored viability, normalised (%) = 80.6; inactive.
For ING5 (inhibitor of growth family member 5), technical replicate 2, the entry reads viability, normalised (%) = 35; active.
With ING5 (inhibitor of growth family member 5), technical replicate 3, the values are viability, normalised (%) = 80.4; inactive.
With SNAI1 (snail family transcriptional repressor 1), technical replicate 1, the values are viability, normalised (%) = 55.2; active.
SNAI1 (snail family transcriptional repressor 1), technical replicate 2 showed viability, normalised (%) = 51; active.
SNAI1 (snail family transcriptional repressor 1), technical replicate 3 showed viability, normalised (%) = 56.4; active.
ERCC6 (ERCC excision repair 6, chromatin remodeling factor), technical replicate 1 gave viability, normalised (%) = 54.7; active.
ERCC6 (ERCC excision repair 6, chromatin remodeling factor), technical replicate 2 scored viability, normalised (%) = 53.7; active.
ERCC6 (ERCC excision repair 6, chromatin remodeling factor), technical replicate 3 gave viability, normalised (%) = 52.2; active.
BDP1 (BDP1 general transcription factor IIIB subunit), technical replicate 1 showed viability, normalised (%) = 35.1; active.
With BDP1 (BDP1 general transcription factor IIIB subunit), technical replicate 2, the entry reads viability, normalised (%) = 32.5; active.
BDP1 (BDP1 general transcription factor IIIB subunit), technical replicate 3 showed viability, normalised (%) = 52.5; active.
For SRPK3 (SRSF protein kinase 3), technical replicate 1, the values are viability, normalised (%) = 43.5; active.
SRPK3 (SRSF protein kinase 3), technical replicate 2 gave viability, normalised (%) = 39.3; active.
SRPK3 (SRSF protein kinase 3), technical replicate 3 gave viability, normalised (%) = 41.6; active.
PKD2L2, technical replicate 1 gave viability, normalised (%) = 67.9; active.
With PKD2L2, technical replicate 2 the deposit lists viability, normalised (%) = 59.1; active.
For PKD2L2, technical replicate 3, the values are viability, normalised (%) = 48.5; active.
For MAP4K2 (mitogen-activated protein kinase kinase kinase kinase 2), technical replicate 1 the deposit lists viability, normalised (%) = 65.6; active.
MAP4K2 (mitogen-activated protein kinase kinase kinase kinase 2), technical replicate 2 showed viability, normalised (%) = 71.2; active.
For MAP4K2 (mitogen-activated protein kinase kinase kinase kinase 2), technical replicate 3, the values are viability, normalised (%) = 61.2; active.
EPC2 (enhancer of polycomb 2), technical replicate 1 scored viability, normalised (%) = 52.5; active.
EPC2 (enhancer of polycomb 2), technical replicate 2 showed viability, normalised (%) = 66.2; active.
EPC2 (enhancer of polycomb 2), technical replicate 3 gave viability, normalised (%) = 57.6; active.
GUCY2F (guanylate cyclase 2F, retinal), technical replicate 1 gave viability, normalised (%) = 79.8; active.
GUCY2F (guanylate cyclase 2F, retinal), technical replicate 2 gave viability, normalised (%) = 90.2; inactive.
For GUCY2F (guanylate cyclase 2F, retinal), technical replicate 3, the values are viability, normalised (%) = 65.5; active.
RIF1 (replication timing regulatory factor 1), technical replicate 1 showed viability, normalised (%) = 60.7; active.
For RIF1 (replication timing regulatory factor 1), technical replicate 2 the deposit lists viability, normalised (%) = 55; active.
RIF1 (replication timing regulatory factor 1), technical replicate 3 gave viability, normalised (%) = 49.2; active.
For CLDN9 (claudin 9), technical replicate 1, the entry reads viability, normalised (%) = 50.8; active.
CLDN9 (claudin 9), technical replicate 2 scored viability, normalised (%) = 42.7; active.
For CLDN9 (claudin 9), technical replicate 3 the deposit lists viability, normalised (%) = 55.4; active.
